These are yes or no findings as the source states them, for the method shown. For part of these data: Binding seen in cells or lysates may run through a third protein. Some binding calls cover weakened binding; strength is not graded here.
What was measured:
[1] = biological target: PRMT1, endogenous in HCT116 cells (human (endogenous in HCT116)) (UniProt Q99873); test: co-IP; endogenous proteins of HCT116 cells; 500 μg cellular extract, specific antibody or normal rabbit IgG, protein A/G Sepharose; washes with 150 mM NaCl, 0.5% NP-40, 0.25% sodium deoxycholate
[2] = biological target: PRMT1, endogenous in HCT116 cells (human (endogenous in HCT116)) (UniProt Q99873); test: ChIP-reChIP; chromatin from HCT116 cells precipitated with a first antibody and re-precipitated with a second antibody; qPCR of gene promoters (TNS4, EGFR), percent of input
[3] = biological target: Flag-tagged PRMT1 overexpressed in HCT116 cells (human) (UniProt Q99873); test: co-IP; Flag-antibody immunoprecipitates from HCT116 cells overexpressing Flag-tagged PRMT1, immunoblot with antibodies to SMARCA4

Amino acid sequences for entries named in this document (tags omitted).
UniProt Q99873: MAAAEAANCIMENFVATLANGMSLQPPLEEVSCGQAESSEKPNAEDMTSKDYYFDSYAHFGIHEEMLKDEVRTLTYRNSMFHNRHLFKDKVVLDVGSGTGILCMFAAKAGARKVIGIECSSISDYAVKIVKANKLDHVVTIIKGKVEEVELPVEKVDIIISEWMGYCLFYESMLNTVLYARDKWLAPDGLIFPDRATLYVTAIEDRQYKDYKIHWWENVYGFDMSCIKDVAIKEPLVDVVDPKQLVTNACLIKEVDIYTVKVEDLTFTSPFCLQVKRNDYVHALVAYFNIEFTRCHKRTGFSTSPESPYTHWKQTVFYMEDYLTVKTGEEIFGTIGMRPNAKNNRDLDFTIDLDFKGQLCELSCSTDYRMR
UniProt P51532: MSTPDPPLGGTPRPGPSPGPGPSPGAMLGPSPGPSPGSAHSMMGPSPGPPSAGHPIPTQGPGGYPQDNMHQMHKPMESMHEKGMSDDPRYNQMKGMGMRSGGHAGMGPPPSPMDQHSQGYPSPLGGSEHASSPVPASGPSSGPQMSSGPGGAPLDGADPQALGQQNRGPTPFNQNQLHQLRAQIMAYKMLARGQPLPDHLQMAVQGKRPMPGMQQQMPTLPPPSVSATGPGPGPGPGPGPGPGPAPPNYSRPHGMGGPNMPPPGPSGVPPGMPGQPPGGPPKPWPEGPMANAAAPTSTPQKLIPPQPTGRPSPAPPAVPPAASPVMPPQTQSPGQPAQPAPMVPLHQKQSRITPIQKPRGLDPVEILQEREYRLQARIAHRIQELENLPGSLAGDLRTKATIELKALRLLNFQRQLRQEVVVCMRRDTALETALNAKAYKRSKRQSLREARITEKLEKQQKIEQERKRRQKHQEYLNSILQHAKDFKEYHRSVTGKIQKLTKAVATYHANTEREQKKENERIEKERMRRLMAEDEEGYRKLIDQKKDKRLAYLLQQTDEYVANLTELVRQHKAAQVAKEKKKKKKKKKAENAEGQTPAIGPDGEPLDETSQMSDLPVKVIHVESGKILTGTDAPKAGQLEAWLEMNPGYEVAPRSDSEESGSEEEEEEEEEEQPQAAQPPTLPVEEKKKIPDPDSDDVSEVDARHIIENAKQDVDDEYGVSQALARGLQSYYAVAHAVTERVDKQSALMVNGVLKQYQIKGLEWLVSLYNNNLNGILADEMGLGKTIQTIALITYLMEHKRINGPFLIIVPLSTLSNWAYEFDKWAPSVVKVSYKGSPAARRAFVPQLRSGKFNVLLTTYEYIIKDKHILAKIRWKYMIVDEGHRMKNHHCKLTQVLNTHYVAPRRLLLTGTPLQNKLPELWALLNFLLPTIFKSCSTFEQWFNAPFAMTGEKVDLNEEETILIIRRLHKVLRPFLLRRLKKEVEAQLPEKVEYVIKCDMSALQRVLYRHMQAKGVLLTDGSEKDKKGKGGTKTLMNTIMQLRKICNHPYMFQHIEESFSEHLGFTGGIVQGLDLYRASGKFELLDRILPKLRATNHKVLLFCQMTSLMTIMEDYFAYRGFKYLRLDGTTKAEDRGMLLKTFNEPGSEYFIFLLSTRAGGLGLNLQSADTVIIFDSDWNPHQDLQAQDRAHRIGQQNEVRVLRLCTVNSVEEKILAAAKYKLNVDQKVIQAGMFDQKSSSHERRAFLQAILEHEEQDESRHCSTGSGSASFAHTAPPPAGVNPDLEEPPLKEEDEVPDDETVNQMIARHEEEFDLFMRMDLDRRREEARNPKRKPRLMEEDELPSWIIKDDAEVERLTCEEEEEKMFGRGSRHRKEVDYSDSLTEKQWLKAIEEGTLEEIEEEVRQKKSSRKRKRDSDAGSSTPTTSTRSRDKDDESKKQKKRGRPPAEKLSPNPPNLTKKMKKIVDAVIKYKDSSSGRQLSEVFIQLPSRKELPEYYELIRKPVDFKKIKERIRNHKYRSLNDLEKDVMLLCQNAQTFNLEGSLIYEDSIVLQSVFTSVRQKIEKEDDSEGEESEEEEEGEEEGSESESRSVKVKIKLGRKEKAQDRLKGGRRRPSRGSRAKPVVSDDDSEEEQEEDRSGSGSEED

Measured: binding

SWI/SNF related matrix-associated actin-dependent regulator of chromatin subfamily A member 4 (SMARCA4), endogenous in HCT116 cells (from UniProt P51532 1-1647)
binds: all assays above

— PMC8048298
